The text below walks through data of the supplement of paper PMC12819154, “High-throughput peptide-centric local stability assay extends protein–ligand identification to membrane proteins, tissues and bacteria” (Nature Structural & Molecular Biology, 2025).

By UniProt entry, the sequences of proteins in these tests, tags left out. Where a name states a change or a piece, a line headed by the entry shows the natural chain unless it says otherwise.
UniProt Q7Z417: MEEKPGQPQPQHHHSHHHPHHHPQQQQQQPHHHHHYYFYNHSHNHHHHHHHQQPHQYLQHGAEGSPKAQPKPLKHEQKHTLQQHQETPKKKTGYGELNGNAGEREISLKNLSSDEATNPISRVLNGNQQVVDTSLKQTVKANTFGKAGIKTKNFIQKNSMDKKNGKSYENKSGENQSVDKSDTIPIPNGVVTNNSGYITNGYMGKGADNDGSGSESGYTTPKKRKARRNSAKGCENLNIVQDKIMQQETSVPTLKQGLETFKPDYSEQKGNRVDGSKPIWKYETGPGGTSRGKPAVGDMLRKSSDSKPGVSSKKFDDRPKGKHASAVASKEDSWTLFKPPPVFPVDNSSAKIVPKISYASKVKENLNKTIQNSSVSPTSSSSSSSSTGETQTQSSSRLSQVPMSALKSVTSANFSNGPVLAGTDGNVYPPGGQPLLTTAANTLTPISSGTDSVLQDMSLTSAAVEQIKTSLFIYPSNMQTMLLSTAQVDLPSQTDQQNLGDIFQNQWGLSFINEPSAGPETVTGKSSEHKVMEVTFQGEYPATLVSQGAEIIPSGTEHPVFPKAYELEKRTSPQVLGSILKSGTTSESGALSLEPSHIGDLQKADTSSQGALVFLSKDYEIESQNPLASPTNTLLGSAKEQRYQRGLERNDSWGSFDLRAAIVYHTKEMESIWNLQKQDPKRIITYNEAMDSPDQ
UniProt Q7Z392: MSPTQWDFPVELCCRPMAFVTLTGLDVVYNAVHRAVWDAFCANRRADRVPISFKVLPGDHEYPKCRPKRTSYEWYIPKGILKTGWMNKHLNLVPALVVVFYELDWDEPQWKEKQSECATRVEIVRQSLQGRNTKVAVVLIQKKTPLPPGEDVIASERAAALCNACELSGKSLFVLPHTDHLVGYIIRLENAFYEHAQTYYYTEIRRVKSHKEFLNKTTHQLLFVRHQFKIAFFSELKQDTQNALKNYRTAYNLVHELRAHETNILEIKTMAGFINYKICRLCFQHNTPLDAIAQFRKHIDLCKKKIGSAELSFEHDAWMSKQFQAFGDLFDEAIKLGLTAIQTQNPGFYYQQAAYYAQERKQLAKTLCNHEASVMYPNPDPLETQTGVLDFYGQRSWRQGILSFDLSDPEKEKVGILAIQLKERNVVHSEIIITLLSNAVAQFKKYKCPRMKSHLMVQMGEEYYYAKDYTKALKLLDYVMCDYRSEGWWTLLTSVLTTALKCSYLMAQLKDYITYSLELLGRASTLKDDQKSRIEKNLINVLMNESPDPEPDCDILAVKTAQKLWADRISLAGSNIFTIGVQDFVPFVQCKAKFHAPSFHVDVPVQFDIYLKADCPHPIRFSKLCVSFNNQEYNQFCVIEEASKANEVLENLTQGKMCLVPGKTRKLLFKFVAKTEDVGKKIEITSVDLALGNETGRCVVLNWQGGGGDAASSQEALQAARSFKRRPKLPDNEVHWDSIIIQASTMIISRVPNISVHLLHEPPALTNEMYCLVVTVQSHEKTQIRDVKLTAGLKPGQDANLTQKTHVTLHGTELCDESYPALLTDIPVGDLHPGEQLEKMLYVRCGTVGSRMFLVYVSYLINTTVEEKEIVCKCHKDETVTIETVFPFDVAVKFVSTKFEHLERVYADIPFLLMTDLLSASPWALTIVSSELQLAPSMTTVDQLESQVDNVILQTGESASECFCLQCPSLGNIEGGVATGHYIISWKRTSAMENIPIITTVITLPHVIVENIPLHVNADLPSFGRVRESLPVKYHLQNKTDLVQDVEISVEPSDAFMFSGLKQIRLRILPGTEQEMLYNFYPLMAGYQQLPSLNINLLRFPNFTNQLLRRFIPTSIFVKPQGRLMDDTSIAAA
UniProt Q7L5Y6, whole entry: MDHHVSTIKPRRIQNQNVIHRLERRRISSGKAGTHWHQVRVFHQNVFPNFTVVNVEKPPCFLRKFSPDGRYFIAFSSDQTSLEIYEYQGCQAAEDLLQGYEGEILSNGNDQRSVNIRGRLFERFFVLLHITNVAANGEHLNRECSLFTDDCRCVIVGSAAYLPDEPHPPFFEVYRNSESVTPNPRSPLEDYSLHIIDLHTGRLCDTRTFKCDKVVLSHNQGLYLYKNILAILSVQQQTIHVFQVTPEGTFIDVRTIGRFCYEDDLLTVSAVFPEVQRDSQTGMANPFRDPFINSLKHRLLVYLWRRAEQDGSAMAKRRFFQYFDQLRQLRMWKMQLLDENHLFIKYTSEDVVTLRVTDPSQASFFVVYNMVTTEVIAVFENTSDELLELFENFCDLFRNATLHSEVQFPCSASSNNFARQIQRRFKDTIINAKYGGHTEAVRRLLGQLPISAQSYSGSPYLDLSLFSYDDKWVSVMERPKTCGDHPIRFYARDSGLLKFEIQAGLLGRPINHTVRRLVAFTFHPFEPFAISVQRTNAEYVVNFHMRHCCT
UniProt Q86UE4: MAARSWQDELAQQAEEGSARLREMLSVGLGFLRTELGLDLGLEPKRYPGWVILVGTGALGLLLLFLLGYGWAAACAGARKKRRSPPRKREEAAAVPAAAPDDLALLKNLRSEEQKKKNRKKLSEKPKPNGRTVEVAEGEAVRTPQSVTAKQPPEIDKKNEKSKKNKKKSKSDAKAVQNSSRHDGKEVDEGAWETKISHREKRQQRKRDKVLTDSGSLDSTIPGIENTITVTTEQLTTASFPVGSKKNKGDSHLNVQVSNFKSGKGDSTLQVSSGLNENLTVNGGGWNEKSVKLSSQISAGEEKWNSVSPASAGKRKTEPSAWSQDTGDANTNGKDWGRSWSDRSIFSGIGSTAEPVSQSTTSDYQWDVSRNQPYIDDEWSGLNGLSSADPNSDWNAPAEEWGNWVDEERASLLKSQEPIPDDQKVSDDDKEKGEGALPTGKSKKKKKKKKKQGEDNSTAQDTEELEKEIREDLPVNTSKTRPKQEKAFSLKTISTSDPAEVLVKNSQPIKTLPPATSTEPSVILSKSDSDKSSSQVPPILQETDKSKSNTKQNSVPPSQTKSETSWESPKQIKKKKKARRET
UniProt Q7Z6K3: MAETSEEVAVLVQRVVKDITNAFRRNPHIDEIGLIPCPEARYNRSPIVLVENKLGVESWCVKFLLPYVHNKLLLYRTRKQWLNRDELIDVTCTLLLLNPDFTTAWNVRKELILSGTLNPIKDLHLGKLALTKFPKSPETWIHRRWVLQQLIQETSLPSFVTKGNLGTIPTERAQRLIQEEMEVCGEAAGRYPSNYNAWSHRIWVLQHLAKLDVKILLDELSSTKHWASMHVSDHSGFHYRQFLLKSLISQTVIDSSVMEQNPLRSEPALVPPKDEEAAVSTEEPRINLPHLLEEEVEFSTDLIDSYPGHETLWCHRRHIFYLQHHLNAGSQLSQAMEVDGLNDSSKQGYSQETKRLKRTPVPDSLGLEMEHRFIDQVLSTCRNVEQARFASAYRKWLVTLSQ
UniProt Q7LBR1: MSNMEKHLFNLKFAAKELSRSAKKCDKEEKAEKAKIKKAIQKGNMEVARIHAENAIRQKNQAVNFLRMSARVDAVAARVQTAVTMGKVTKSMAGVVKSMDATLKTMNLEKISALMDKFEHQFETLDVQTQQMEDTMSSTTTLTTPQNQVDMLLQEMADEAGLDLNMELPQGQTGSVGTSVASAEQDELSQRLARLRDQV
UniProt Q6ZU80: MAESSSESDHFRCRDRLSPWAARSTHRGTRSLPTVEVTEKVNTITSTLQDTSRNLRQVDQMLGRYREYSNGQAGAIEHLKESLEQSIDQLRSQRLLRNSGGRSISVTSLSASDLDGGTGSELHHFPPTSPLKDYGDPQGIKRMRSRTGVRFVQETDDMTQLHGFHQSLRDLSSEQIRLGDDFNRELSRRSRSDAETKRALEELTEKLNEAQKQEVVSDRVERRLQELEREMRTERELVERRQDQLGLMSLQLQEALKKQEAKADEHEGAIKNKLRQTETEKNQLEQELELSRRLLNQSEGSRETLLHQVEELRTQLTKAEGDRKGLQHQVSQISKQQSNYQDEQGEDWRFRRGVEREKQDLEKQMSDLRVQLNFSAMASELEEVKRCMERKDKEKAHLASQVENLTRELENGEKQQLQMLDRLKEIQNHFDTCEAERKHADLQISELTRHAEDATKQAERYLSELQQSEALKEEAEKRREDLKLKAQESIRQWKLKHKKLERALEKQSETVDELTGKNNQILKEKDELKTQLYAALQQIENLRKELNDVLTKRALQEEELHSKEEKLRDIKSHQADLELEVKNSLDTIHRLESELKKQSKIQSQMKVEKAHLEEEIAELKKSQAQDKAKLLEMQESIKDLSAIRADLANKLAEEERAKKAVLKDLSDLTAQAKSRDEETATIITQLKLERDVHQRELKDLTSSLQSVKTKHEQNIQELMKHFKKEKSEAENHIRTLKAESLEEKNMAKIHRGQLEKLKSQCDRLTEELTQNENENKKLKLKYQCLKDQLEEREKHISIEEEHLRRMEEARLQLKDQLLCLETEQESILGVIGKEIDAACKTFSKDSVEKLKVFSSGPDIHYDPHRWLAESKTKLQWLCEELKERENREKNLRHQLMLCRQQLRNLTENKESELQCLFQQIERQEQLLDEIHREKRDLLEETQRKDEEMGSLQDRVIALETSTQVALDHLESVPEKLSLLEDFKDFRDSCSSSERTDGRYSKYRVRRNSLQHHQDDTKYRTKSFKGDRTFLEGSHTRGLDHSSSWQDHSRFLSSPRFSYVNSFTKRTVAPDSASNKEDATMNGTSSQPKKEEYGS
UniProt Q86TJ5: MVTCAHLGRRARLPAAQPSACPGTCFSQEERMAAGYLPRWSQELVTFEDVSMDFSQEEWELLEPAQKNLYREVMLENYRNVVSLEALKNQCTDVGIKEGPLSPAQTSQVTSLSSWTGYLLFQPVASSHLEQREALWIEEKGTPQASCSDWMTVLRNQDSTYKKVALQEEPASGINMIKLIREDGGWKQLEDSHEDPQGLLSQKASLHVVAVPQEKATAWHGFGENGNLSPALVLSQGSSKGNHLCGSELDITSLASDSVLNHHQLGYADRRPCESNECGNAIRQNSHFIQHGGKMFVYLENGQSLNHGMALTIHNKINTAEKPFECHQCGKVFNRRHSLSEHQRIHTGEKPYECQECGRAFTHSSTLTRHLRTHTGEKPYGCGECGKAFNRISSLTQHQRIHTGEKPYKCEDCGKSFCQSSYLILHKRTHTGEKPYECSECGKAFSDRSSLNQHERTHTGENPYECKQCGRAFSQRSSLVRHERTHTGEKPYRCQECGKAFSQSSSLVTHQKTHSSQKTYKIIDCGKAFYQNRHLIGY
UniProt Q7L3V2: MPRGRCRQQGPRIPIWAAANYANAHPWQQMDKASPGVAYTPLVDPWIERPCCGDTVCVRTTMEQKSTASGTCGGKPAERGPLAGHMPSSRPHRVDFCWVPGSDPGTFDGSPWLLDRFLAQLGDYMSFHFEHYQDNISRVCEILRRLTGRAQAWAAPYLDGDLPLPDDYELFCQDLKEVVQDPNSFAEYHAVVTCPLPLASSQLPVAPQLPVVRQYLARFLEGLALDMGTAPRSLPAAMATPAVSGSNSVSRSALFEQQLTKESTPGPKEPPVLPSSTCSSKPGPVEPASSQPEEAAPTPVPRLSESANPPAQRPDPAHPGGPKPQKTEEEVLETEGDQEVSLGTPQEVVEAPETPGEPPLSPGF
UniProt Q6ZNW5: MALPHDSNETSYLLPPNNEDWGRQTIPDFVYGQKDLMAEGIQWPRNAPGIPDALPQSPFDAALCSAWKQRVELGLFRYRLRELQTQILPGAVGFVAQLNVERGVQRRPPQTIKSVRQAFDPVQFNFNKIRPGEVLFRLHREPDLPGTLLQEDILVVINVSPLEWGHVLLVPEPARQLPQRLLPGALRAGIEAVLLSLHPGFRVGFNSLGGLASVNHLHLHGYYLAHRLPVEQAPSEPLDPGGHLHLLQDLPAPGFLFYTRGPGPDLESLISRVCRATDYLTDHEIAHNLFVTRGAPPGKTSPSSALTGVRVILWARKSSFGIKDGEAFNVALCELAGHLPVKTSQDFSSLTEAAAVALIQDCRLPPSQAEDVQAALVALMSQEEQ
UniProt Q86T20: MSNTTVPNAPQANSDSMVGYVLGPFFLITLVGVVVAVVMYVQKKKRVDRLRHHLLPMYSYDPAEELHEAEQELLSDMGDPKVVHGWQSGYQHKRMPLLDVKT
UniProt Q7L3B6: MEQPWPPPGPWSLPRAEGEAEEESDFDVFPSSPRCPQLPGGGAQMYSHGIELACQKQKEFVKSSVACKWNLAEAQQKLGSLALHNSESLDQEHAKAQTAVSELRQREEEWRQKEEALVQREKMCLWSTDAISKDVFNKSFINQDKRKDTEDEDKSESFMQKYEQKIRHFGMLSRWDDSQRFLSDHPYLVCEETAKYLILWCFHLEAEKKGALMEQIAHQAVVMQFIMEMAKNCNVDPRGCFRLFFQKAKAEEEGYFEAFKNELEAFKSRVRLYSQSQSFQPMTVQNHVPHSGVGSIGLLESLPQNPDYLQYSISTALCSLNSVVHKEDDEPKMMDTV

The other results are listed elsewhere or left out. Most entries show no effect beyond the scatter of the controls.

Compound in this assay: Cc1nc(Nc2ncc(C(=O)Nc3c(C)cccc3Cl)s2)cc(N2CCN(CCO)CC2)n1 [dasatinib]
Nature of the assay: log2 fold change of tryptic peptide abundance, ligand vs vehicle (limited proteolysis) (log2 ratio); higher = more trypsin-susceptible (destabilized). The note with it: ligand concentration: 5 uM; sample: K562 cleared lysate.
Regarding “MACC1 (peptide sequence: MAWLSQR, peptide start residue: 180) (UniProt Q6ZN28)”, the log2 fold change is -0.372.

As for “NUFIP2 (peptide sequence: TSPQVLGSILK, peptide start residue: 571) (UniProt Q7Z417)”, the log2 fold change was -0.0639.

As for “DNMBP (peptide sequence: HHTSSVYSISER, peptide start residue: 509) (UniProt Q6XZF7)”, the log2 fold change is -0.266.

As for “UniProt Q7Z392 (peptide sequence: FIPTSIFVKPQGR, peptide start residue: 1111)”, the log2 fold change was -0.0393.

On to “UniProt Q70EK8 (peptide sequence: EKALPSDNIR, peptide start residue: 90)”, for which the log2 fold change is -0.146.

For “DET1 (peptide sequence: FEIQAGLLGRPINHTVR, peptide start residue: 499) (UniProt Q7L5Y6)”, the log2 fold change is -0.605.

For “MTDH (peptide sequence: WNSVSPASAGK, peptide start residue: 304) (UniProt Q86UE4)”, the log2 fold change was 0.261.

Take “PTAR1 (peptide sequence: LGVESWCVK, peptide start residue: 54) (UniProt Q7Z6K3)”: the log2 fold change was -0.616.

With “CHMP1B (peptide sequence: VQTAVTMGK, peptide start residue: 79) (UniProt Q7LBR1)”, the log2 fold change came to 0.0593.

Take “NFXL1 (peptide sequence: RQQAELEAFENR, peptide start residue: 852) (UniProt Q6ZNB6)”: the log2 fold change was -0.261.

Take “UniProt Q86UE6 (peptide sequence: LQALAPDLFHGLR, peptide start residue: 149)”: the log2 fold change worked out at 0.193.

For “ZNF813 (peptide sequence: HESHHTGDFR, peptide start residue: 77) (UniProt Q6ZN06)”, the log2 fold change was -0.85.

With “CEP128 (peptide sequence: LRQTETEK, peptide start residue: 274) (UniProt Q6ZU80)”, the log2 fold change amounted to 0.213.

Turning to “UniProt Q70Z53 (peptide sequence: GPLPETDEK, peptide start residue: 292)”, the log2 fold change is 0.522.

For the target “PRPF39 (peptide sequence: VVVLFER, peptide start residue: 372) (UniProt Q86UA1)”, the log2 fold change is -0.212.

As for “UniProt Q86TJ5 (peptide sequence: THTGEKPYECSECGK, peptide start residue: 480)”, the log2 fold change was -0.0298.

As to “RBBP6 (peptide sequence: GVDKDFESSSMK, peptide start residue: 1155) (UniProt Q7Z6E9)”, the log2 fold change was -0.184.

As for “RTL10 (peptide sequence: STASGTCGGKPAER, peptide start residue: 66) (UniProt Q7L3V2)”, the log2 fold change was found to be 0.187.

Regarding “NOL8 (peptide sequence: SKNPISRPLEGK, peptide start residue: 668) (UniProt Q76FK4)”, the log2 fold change worked out at 0.382.

On to “UniProt Q6ZNW5 (peptide sequence: GPGPDLESLISR, peptide start residue: 261)”, for which the log2 fold change amounted to 0.262.

Turning to “SMIM29 (peptide sequence: VVHGWQSGYQHK, peptide start residue: 82) (UniProt Q86T20)”, the log2 fold change is -0.306.

With “UniProt Q7Z7K2 (peptide sequence: EGSHNAQEQMSSSR, peptide start residue: 28)”, the log2 fold change was -0.372.

Take “USP54 (peptide sequence: EFIPDEPSKPPSYDIK, peptide start residue: 612) (UniProt Q70EL1)”: the log2 fold change was -0.295.

For the target “UniProt Q7L523 (peptide sequence: DVHRFEK, peptide start residue: 224)”, the log2 fold change is -0.672.

Turning to “CDC37L1 (peptide sequence: SSVACKWNLAEAQQK, peptide start residue: 63) (UniProt Q7L3B6)”, the log2 fold change was -0.305.

Regarding “AKNA (peptide sequence: GVGSAGWPDRVTFR, peptide start residue: 1203) (UniProt Q7Z591)”, the log2 fold change came out at 0.321.
